Source: PubChem BioAssay (EPA / NIEHS)
Inconclusive results, whose numbers are uncertain, are shown with a selection of clear calls. Potencies beside an inconclusive call are fits to weak or partial responses and may not hold up. Some structures have more than one record in an assay (separate samples or runs), and their calls can disagree. Calls of active or inactive are those of the source. The calls were made as follows: active = hit-call score of the fitted dose curve at least 0.9, where 1 is the maximum; inconclusive = response in the unintended direction; inactive = score below 0.9.

By UniProt entry, the sequences of proteins in these tests, tags left out. Where a name states a change or a piece, a line headed by the entry shows the natural chain unless it says otherwise.
UniProt O96013: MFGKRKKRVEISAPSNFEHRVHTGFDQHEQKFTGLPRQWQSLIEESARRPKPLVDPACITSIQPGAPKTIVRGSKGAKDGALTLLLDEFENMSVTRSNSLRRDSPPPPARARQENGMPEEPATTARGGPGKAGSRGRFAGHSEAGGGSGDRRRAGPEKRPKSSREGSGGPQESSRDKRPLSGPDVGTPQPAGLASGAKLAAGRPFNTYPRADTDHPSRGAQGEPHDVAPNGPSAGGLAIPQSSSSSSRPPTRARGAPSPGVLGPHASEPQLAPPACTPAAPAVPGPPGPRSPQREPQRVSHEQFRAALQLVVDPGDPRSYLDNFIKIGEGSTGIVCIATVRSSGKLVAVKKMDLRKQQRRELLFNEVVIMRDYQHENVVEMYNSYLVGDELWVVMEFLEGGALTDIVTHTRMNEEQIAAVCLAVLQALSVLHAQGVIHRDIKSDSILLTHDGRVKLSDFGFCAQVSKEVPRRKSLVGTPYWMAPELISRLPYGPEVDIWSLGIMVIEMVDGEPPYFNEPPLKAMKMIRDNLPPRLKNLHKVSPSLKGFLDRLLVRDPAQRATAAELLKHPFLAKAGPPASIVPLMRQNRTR

biological target: human p21 Activated Kinase 4 (PAK4), PAK4 (gene 10298) (UniProt O96013); test: NVS_ENZ_hPAK4: NovaScreen (NVS) Enzymatic Assay for human p21 Activated Kinase 4 (PAK4) (AID 2283189)
Method: NVS_ENZ_hPAK4 is a biochemical, single-readout assay that uses extracted gene-proteins in a cell-free assay. Measurements were taken 1 hour after chemical dosing in a 384-well plate.NVS_ENZ_hPAK4 is one of one assay component(s) measured or calculated from the NVS_ENZ_hPAK4 assay. It is designed to make measurements of enzyme activity, a form of enzyme reporter, as detected with fluorescence intensity signals by Fluorescence and electrophoretic mobility shift technology.Data from the assay component NVS_ENZ_hPAK4 was analyzed into 1 assay endpoint. This assay endpoint, NVS_ENZ_hPAK4, was analyzed in the positive analysis fitting direction relative to DMSO as the negative control and baseline of activity. Using a type of enzyme reporter, loss-of-signal activity can be used to understand changes in the enzymatic activity as they relate to the gene PAK4. Furthermore, this assay endpoint can be referred to as a primary readout, because this assay has produced multiple assay endpoints where this one serves a enzymatic activity function. To generalize the intended target to other relatable targets, this assay endpoint is annotated to the kinase intended target family, where the subfamily is serine/threonine kinase.
Binding assays used specific radioligands (tritiated, iodinated) with non-radioactive competitive displacement ligands in agonist or antagonist protocols (as indicated) and various reference compounds and inhibitors to titrate specific binding to receptors and transporters. Most enzyme assays (CYPs, kinases, phosphatases, proteases, HDACs) used recombinant protein and specific substrates (fluorescence mostly, some colorimetric and radioactive) and inhibitors, followed by a biochemical separation of substrate and product. All assays for the biochemical HTS were initially run in duplicate at a single concentration (10 uM for CYP450 assays and 25 uM for all others). […] Each assay was run with positive and negative controls, and concurrent controls on every plate. The follow-up (secondary) screen tested active chemical-pairs in concentration series, as well as a few additional assays not tested in the primary screen, some selected negative inactives, and several cases re-run in the concentration series for confirmatory purposes.

Row | SMILES | AC50 | outcome
1 | COCC(C)OCC(C)O (stereo not drawn) | inconclusive: 25 µM | 
2 | Cc1oc2c(NC(=O)c3c(Cl)cccc3Cl)cccc2c1C(C)(C)O | inconclusive: 7.15 µM | 
3 | CC(C)CCCCCCc1ccc(O)cc1 | inconclusive: 25 µM | 
4 | O=C(O)Cc1cc(I)c(Oc2cc(I)c(O)c(I)c2)c(I)c1 |  | inactive
5 | O=C(O)Cc1cc(I)c(Oc2ccc(O)c(I)c2)c(I)c1 | inconclusive: 25 µM | 
6 | Cc1ccc2oc(CN(Cc3ccccc3)C(=O)Nc3c(F)cc(F)cc3F)c(-c3ccc(Cl)cc3)c2c1 |  | inactive
7 | CCCCCCCCCCCCc1ccccc1S(=O)(=O)O | active: 18.1 µM | 
8 | CN(C)[C@@H]1C(=O)C(C(N)=O)=C(O)[C@@]2(O)C(=O)C3=C(O)c4c(O)cccc4[C@@](C)(O)[C@H]3[C@H](O)[C@@H]12 | active: 9.28 µM | inactive
9 | CC/C(=C\C(=N/O)C(N)=O)C(C)[N+](=O)[O-] (stereo not drawn) |  | inactive
10 | CC(C)O.CC(C)O.OCCN(CCO)CCO.OCCN(CCO)CCO.[Ti] | active: 0.00229 µM | 
11 | CC/C(=C(/CC)c1ccc(O)cc1)c1ccc(O)cc1 | inconclusive: 25 µM | 
12 | C1=CCCC=CCCC=CCC1 | inconclusive: 25 µM | 
13 | NCC1(Cc2noc(=O)[nH]2)CCCCC1 | inconclusive: 25 µM | 
14 | CCc1c(C(=O)NN2CCCCC2)nn(-c2ccc(Cl)cc2Cl)c1-c1ccc(Br)cc1 |  | inactive
15 | Oc1ccc2c(c1)-c1ccccc1C2 | inconclusive: 0.745 µM | 
16 | N[C@@H](Cc1cc(I)c(Oc2ccc(O)c(I)c2)c(I)c1)C(=O)O |  | inactive

Row | SMILES | AC50 | outcome
17 | S=C([S-])NCCNC(=S)[S-].[Mn+2] | active: 5.91 µM | 
18 | NCCO | inconclusive: 4.96 µM | 
19 | O=C(Oc1ccccc1)c1cccc(C(=O)Oc2ccccc2)c1 |  | inactive
20 | CC(C)c1cccc(C(C)C)c1N1C(=O)c2ccc(O)cc2C1=O |  | inactive
21 | CN1C(=O)N(c2ccccc2Br)Cc2cnc(Nc3ccc4c(c3)OCC(CO)O4)nc21 (stereo not drawn) | active: 8.54 µM | 
22 | O=C(O)c1cccnc1 | inconclusive: 25 µM | 
23 | CC(=O)OC[C@H]1O[C@@](COC(C)=O)(O[C@H]2O[C@H](COC(C)=O)[C@@H](OC(C)=O)[C@H](OC(C)=O)[C@H]2OC(C)=O)[C@@H](OC(C)=O)[C@@H]1OC(C)=O | inconclusive: 0.506 µM | 
24 | CC1(C)CC(N=C=O)CC(C)(CN=C=O)C1 (stereo not drawn) | active: 25 µM | 
25 | Cc1[nH]nc2c1N=C(c1ccccc1Cl)c1cc([N+](=O)[O-])ccc1N2 | active: 9.53 µM | 
26 | CN(C)c1ccc(N=NS(=O)(=O)O)cc1 | inconclusive: 23.8 µM | 
27 | CCCCCCCCCCO | inconclusive: 25 µM | 
28 | CC(C)(c1ccc(O)cc1)c1ccc(O)cc1 |  | inactive
29 | CCOc1ccc(C(C)(C)COCc2cccc(Oc3ccccc3)c2)cc1 | inconclusive: 25 µM | 
30 | Cc1cc(N=Nc2ccccc2C)ccc1N |  | inactive
31 | OC(CCl)CCl | inconclusive: 45.8 µM | 
32 | O=C(O)CCCCC(=O)O | inconclusive: 25 µM | 

Nos. 18–19 of the list above:
Row | SMILES | AC50 | outcome
18 | NCCO | inconclusive: 4.96 µM | 
19 | O=C(Oc1ccccc1)c1cccc(C(=O)Oc2ccccc2)c1 |  | inactive
